The values below come from PubChem BioAssay AID2685 (National Center for Advancing Translational Sciences (NCATS), 2010).

The other results are listed elsewhere or left out. These are further read-outs of the screen, such as a control signal, another cell line or another target. No call is given for them. The list favours compounds with an active or inconclusive main result. Potencies come from curve fits of mixed quality, noted in brackets.

This assay is described as follows: qHTS Assay for Lipid Storage Modulators in Drosophila S3 Cells.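 On cell number change: cells counted by Cell Tracker Red CMTPX staining in the red channel.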 As to conditions: BODIPY lipid droplet fluorescence, 18-24 h; for cell number change: measured here: cell count max response, cells fed with added oleic acid. The procedure, abridged: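 Drosophila S3 cells loaded with oleic acid (400 uM, as added) and compounds at several concentrations; lipid droplets imaged by 488-nm laser-scanning cytometry, 500–530 nm intensity and object ratio to cell channel. Percent activity normalized to 20 uM Triacsin C.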
In general terms: Quantitative high-throughput screening tests each substance at several concentrations.

Where [1] appears, read: measured here: lipid fluorescence (Fed channel) AC50, cells fed with added oleic acid.
Where [2] appears, read: measured here: cell number channel AC50, cells fed with added oleic acid.

With `CN(CCCC(=O)Nc1ccc(Br)cc1F)S(=O)(=O)c1ccccc1`, the AC50 (in general, the midpoint of the concentration-response curve, whichever way the signal moves) under setting [1] is 4.11 µM [falling, full curve].

As to `Fc1c(F)c(C(F)(F)F)c(F)c(F)c1N1CCN(c2ccc3nnc(C(F)(F)F)n3n2)CC1`, the cell number change stood at 4.33%. In addition, under setting [1], the AC50 is 2.06 µM [rising, partial curve, poor fit].

For `CC(C)=CC(=O)OCC(=O)Nc1ccc(Cl)cn1`, the cell number change is -6.71%. Besides, the AC50 under setting [2] is 1.64 µM [falling, partial curve]. Moreover, under setting [1], the AC50 is 16.4 µM [falling, partial curve].

As for `O=C(NC1CCN(C(=O)Nc2ccccc2)CC1)C1CCCCC1`, the cell number change was -12.1%. In addition, the AC50 under setting [1] is 29.1 µM [falling, single point].

Take `CN(CCNS(=O)(=O)c1ccc2c(c1)oc(=O)n2C)Cc1ccccc1`: the cell number change stood at 1.57%. For the same compound, the AC50 under setting [2] is 0.651 µM [falling, single point].

As to `Cc1ccc(CNC(=O)c2cc(-c3ccccc3)n(Cc3cc(C)no3)n2)cc1`, the AC50 under setting [1] was 1.64 µM [falling, partial curve].

For the compound `C=CCOc1ccc(C2=NO[C@@H]3[C@@H]4C[C@@H]([C@H]5C(=O)N(C)C(=O)[C@@H]45)[C@H]23)cc1`, the cell number change came to 45.9%. The AC50 under setting [2] was 20.6 µM [rising, single point]. For the same compound, the AC50 under setting [1] is 29.1 µM [rising, single point].

As for `O=C(CN1CCN(c2ccccn2)CC1)Nc1cc(F)ccc1F`, the half-maximal activity concentration (AC50) under setting [1] was 7.31 µM [falling, single point].

Take `CSc1nnc(-c2cc(Br)ccc2N=Cc2c(C)[nH]n(-c3ccccc3)c2=O)c(=O)[nH]1`: the cell number change was -13.5%. The AC50 under setting [1] was 3.66 µM [falling, single point].

Take `Cc1ccc(OCCC(=O)Nc2ccc(S(=O)(=O)Nc3nccs3)cc2)cc1`: the cell number change came to 8.81%. The AC50 under setting [1] was 9.2 µM [rising, partial curve].

Turning to `CC(C)c1cc(C(N)=O)c(NC(=O)C2CCC2)s1`, the AC50 under setting [2] was 1.84 µM [rising, partial curve].

As for `O=C1C(Cl)=C(Nc2ccccc2O)C(=O)N1CCc1ccccc1`, the cell number change was -52.5%. Under setting [2], the AC50 is 29.1 µM [falling, single point]. The AC50 under setting [1] is 29.1 µM [falling, single point].

As for `Cc1ccc(-c2nc(NC(=O)CSc3nnc4scc(-c5ccccc5)n34)ns2)cc1`, the cell number change is -1.43%. In addition, the AC50 under setting [1] is 0.103 µM [rising, full curve, poor fit].

`CCN(CC)C(=O)CSc1nc(O)cc(=O)n1-c1ccccc1OC`: the cell number change was 4.35%.

On to `Cn1c(/C=N/NC(=O)c2ccccc2)nc2ccccc21`, for which the cell number change was found to be 10.1%. Besides, the AC50 under setting [1] was 29.1 µM [falling, single point].

With `O=C(c1ccc(Cl)c(Cl)c1)N1CCC(O)(CN2CCOCC2)CC1`, the cell number change is -1.77%. For the same compound, the AC50 under setting [2] is 0.116 µM [falling, full curve]. Moreover, under setting [1], the AC50 is 1.3 µM [falling, single point].
